PubChem BioAssay AID1259405, NCATS, 2018
Test: 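Mouse-designed siRNAs used to find CHO productivity engineering targets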 (primary screen). Cell system: Chinese hamster CHO-K1 ovary cells with stable secreted eGFP expression. Reagent: single siRNA against mouse genes, 0.8 pmol siRNA per well (2 µl of 400 nM stock). Time to read-out: 3 days. Read-out: 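Percent of the per-plate non-targeting control median for intracellular GFP per well by laser scanning cytometry and for cell viability by ATP luminescence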. Direction: GFP, % of control: higher = more GFP per well, higher productivity; viability (ATP), % of control: higher = more viable cells (more ATP). Hit rule: 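Called active when intracellular GFP, relative to negative control, is at or above 120%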.
Here is one part, drawn at random, of about 50,000 deposited reagents. In the full data, about 4,000 (8%) got an active call. 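Mouse siRNA library applied to hamster cells; one well for each siRNA.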 Unmarked entries are inactive. Reagents against one gene are numbered here.

target gene	siRNA no.	GFP, % of control	viability (ATP), % of control
Krtap6-1	1	52.6	75.8
Krtap6-1	2	125 (active)	75.1
Krtap6-1	3	74.7	67.4
Dnajb4	1	87.4	69.6
Dnajb4	2	107	84.6
Dnajb4	3	96.6	114
Gpr26	1	87.3	66.5
Gpr26	2	96.9	88.9
Gpr26	3	98.6	86.1
Fah	1	27.6	48.4
Fah	2	73.6	72.8
Fah	3	60.1	85.5
Eif4a3	1	79.6	67.2
Eif4a3	2	43.8	21.6
Eif4a3	3	196 (active)	132
Exph5	1	47.1	64.3
Exph5	2	58	68.5
Exph5	3	98.4	100
Cacng8	1	67.3	103
Cacng8	2	33.6	45.9
Cacng8	3	52.3	55.2
Hrg	1	44.7	68.2
Hrg	2	87.3	61.7
Hrg	3	108	117
Sfrp1	1	38.4	44.8
Sfrp1	2	56.6	53.1
Sfrp1	3	72.5	60.7
Chil5	1	83.7	63.1
Chil5	2	63.3	72.7
Chil5	3	78.1	53.8
D17H6S56E-5	1	89	90.3
D17H6S56E-5	2	58.8	69.2
D17H6S56E-5	3	159 (active)	63.4
Tcap	1	55.6	61.4
Tcap	2	94.9	77.2
Tcap	3	76.5	81.9
Pla2g6	1	43.7	36.1
Pla2g6	2	105	102
Pla2g6	3	106	61.3
Rpia	1	93.5	101
Rpia	2	90.8	38.4
Rpia	3	46.5	66.5
Ly6h	1	87.9	82.2
Ly6h	2	96.1	93.8
Ly6h	3	69.8	73.7
Castor1	1	148 (active)	112
Castor1	2	79.5	103
Castor1	3	152 (active)	126
Castor1	4	93.4	92.4
Castor1	5	143 (active)	87.5
Castor1	6	94.2	115
Clec11a	1	74	105
Clec11a	2	97.2	73.1
Clec11a	3	72.1	56.1
Nkain3	1	49.3	60.3
Nkain3	2	59.2	75.1
Nkain3	3	60.1	72.1

Entries above whose target name starts with K or k:
target gene	siRNA no.	GFP, % of control	viability (ATP), % of control
Krtap6-1	1	52.6	75.8
Krtap6-1	2	125 (active)	75.1
Krtap6-1	3	74.7	67.4
